# According to patent publication EP4621028A1, “FLUORESCENCE RECOVERY IN NANOGRAPHENE” (Max-Planck-Gesellschaft zur Förderung der Wissenschaften …, priority 2024, dated 2025):
# Legend:
# [1] = Fluorescence retention in STED microscopy (Example 12); assay type: physicochemical
# [2] = Fluorescence deactivation by 561 nm excitation beam and reactivation by 775 nm STED beam (Example 11); assay type: physicochemical
compound,measurement,setting,value
"Cc1cc(C)c(-c2c3cccc4c5ccc6ccc7c(-c8c(C)cc(C)cc8C)c8cccc9c%10ccc%11ccc2c2c%11c%10c%10c(c89)c7c6c5c%10c2c34)c(C)c1 [DBOV-Mes, 6,14-dimesityldibenzo[hi,st]ovalene]",maximum fluorescence retention,"[1]; 150 consecutive images, 561 nm excitation beam with donut-shaped 775 nm STED beam as recovery light",62%
same,fluorescence retention,[1]; Gaussian-shaped rather than donut-shaped recovery beam coinciding with excitation beam (experiment not shown),full fluorescence retention
same,reduction in fluorescence,"[2]; 7 cycles, in the absence of reactivation (comparison)",30%
same,slope of lnln-ln plot of fluorescence ratio vs power density of excitation laser light,"[2]; 561 nm excitation only, region of few images (Figure 7)",2
same,fluorescence recovered by reactivation beam,"[2]; 775 nm (600 mW) doughnut-shape STED beam, 5 frames, total reactivation time 5.614 s",all fluorescence was recovered
same,slope of lnln-ln plot of fluorescence reactivation rate vs intensity of recovery light,[2]; 775 nm STED laser beam (Figure 8),about 1
same,reduction in fluorescence,[2]; after 7 cycles of repeated short-term deactivation and reactivation,no significant reduction in fluorescence
same,fluorescence intensity quenched,"[2]; after 100 consecutive frames of confocal imaging, 561 nm (0.22 mW) excitation beam",~50%
